Experimental data reported in US11332440B2, “4-oxo-alkylated tetramic acid compound, and preparation method thereof” (priority 2017, dated 2022).
At least one structure is not confirmed: it was looked up by name or label, or the drawing left a doubt.

System: Salmonella typhimurium TA98
Assay: Mini Ames experiment, strain TA98
Assay type: cell-based
Method: Histidine auxotrophic strains of Salmonella typhimurium were cultured in a special medium with quite a low content of histidine. The strains were difficult to divide due to lack of nutrition. If a test compound has mutagenicity, a large number of cells will undergo reverse mutation, synthesizing histidine by themselves and developing into colonies visible to the naked eye. In view of the close relationship between mutagenicity and carcinogenesis of chemicals, this method has been widely used in screening carcinogens. Some chemicals need metabolic activation to induce mutagenicity. Mammalian microsomal enzyme S9 can be added into the test system to eliminate the influence of metabolic activation on generation of mutagenicity.
[…] Mini Ames test with compound 50561

SMILES | Individual Revertant Colony Counts [Background Lawn] (TA98, With Metabolic Activation, control article 0.4 μg per well) | Individual Revertant Colony Counts [Background Lawn] (TA98, Without Metabolic Activation, control article 2.0 μg per well)
Nc1ccc2cc3ccccc3cc2c1 [2-AA, reference compound] | 318 [1], 276 [1], | –
O=[N+]([O-])c1ccc2c(c1)Cc1ccccc1-2 [2-NF, reference compound] | – | 407 [1], 393 [1],
